Measurements reported in PubChem BioAssay AID504793 (Drosophila RNAi Screening Center, 2011)
Aim: 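Knock-downs allowing continued mitosis even though DNA is damaged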 (primary screen). Cell system: Drosophila S2R+ cells. Knock-down reagent: long dsRNA against Drosophila genes, about 0.25 µg dsRNA per well. Duration: 4 days of dsRNA, then 4 hours of drug before read-out. Treatment: doxorubicin 0.5 µM for 4 hours to cause double-strand breaks, in cells also given a low, harmless dose of dsRNA against nbs to sensitise the assay. Detection: 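Per-well count of mitotic cells stained for phospho-histone H3 after doxorubicin exposure, used as mitotic index; counts are raw and not normalised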. Direction: mitotic cells: higher = more cells in mitosis, weaker G2 arrest. Rule for the call: 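a call needs confirmation in secondary tests, with other dsRNAs and a check of mitotic timing without damage, not just a high primary count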. Meaning of the calls: active = confirmed in follow-up tests; inactive = not confirmed.
In all, the deposit lists about 23,000 reagents; shown is an unselected part of those with a known target gene and a result. Of all reagents, 62 (0.27%) got an active call. 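Calls come from follow-up tests whose scores are not deposited, so confirmed genes may have low counts here; counts are not normalised per plate.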 Raw values vary from plate to plate and are shown uncorrected. A plus sign joins genes that one reagent is predicted to hit.

target gene | dsRNA | mitotic cells, replicate 1 | Call
Gr47a (GeneID 36094) | DRSC06221 | 7 | inactive
Josd (GeneID 31560) | DRSC18323 | 11 | inactive
TpnC73F (GeneID 39916) | DRSC11307 | 3 | inactive
CG30088 (GeneID 246447) | DRSC21764 | 3 | inactive
CG30088 (GeneID 246447) | DRSC24797 | 6 | inactive
Tektin-C (GeneID 38653) | DRSC09741 | 4 | inactive
Tektin-C (GeneID 38653) | DRSC26608 | 6 | inactive
robo1 (GeneID 37603) | DRSC04712 | 1 | inactive
Cp7Fb (GeneID 31785) | DRSC18034 | 14 | inactive
CG42264 (GeneID 31504) | DRSC18074 | 18 | inactive
CG42264 (GeneID 31504) | DRSC18075 | 6 | inactive
CG42264 (GeneID 31504) | DRSC28051 | 1 | inactive
Ufd4 (GeneID 34378) | DRSC02871 | 6 | inactive
CG14265 (GeneID 31297) | DRSC18591 | 16 | inactive
CG14265 (GeneID 31297) | DRSC29212 | 6 | inactive
Ugt303B1 (GeneID 42775) | DRSC15141 | 6 | inactive
Rab8 (GeneID 40168) | DRSC11261 | 12 | inactive
Rcd2 (GeneID 40283) | DRSC11756 | 10 | inactive
Naa35 (GeneID 37866) | DRSC04447 | 7 | inactive
Naa35 (GeneID 37866) | DRSC26149 | 3 | inactive
Arfrp1 (GeneID 31841) | DRSC18417 | 6 | inactive
Snx3 (GeneID 41551) | DRSC16027 | 6 | inactive
Snx3 (GeneID 41551) | DRSC28751 | 6 | inactive
Pcyt2 (GeneID 38180) | DRSC08531 | 7 | inactive
CG11018 (GeneID 37259) | DRSC06024 | 4 | inactive
CG11018 (GeneID 37259) | DRSC28771 | 8 | inactive
ppk30 (GeneID 43487) | DRSC15302 | 28 | inactive
sit (GeneID 42658) | DRSC15760 | 12 | inactive
sit (GeneID 42658) | DRSC25250 | 14 | inactive
CG13564 (GeneID 37855) | DRSC04201 | 5 | inactive
Rrp1 (GeneID 33500) | DRSC00784 | 10 | inactive
Rrp1 (GeneID 33500) | DRSC26575 | 7 | inactive
Gos28 (GeneID 248102) | DRSC16292 | 6 | inactive
Gos28 (GeneID 248102) | DRSC22859 | 11 | inactive
Daao2 (GeneID 33955) | DRSC02135 | 3 | inactive
Osi5 (GeneID 40759) | DRSC12276 | 7 | inactive
Ubi-p63E (GeneID 38456) | DRSC22016 | 10 | inactive

Targets listed so far whose target name starts with C or c (11):
target gene | dsRNA | mitotic cells, replicate 1 | Call
CG30088 (GeneID 246447) | DRSC21764 | 3 | inactive
CG30088 (GeneID 246447) | DRSC24797 | 6 | inactive
Cp7Fb (GeneID 31785) | DRSC18034 | 14 | inactive
CG42264 (GeneID 31504) | DRSC18074 | 18 | inactive
CG42264 (GeneID 31504) | DRSC18075 | 6 | inactive
CG42264 (GeneID 31504) | DRSC28051 | 1 | inactive
CG14265 (GeneID 31297) | DRSC18591 | 16 | inactive
CG14265 (GeneID 31297) | DRSC29212 | 6 | inactive
CG11018 (GeneID 37259) | DRSC06024 | 4 | inactive
CG11018 (GeneID 37259) | DRSC28771 | 8 | inactive
CG13564 (GeneID 37855) | DRSC04201 | 5 | inactive

Continued.
target gene | dsRNA | mitotic cells, replicate 1 | Call
Patsas (GeneID 34634) | DRSC02975 | 5 | inactive
Patsas (GeneID 34634) | DRSC28826 | 6 | inactive
CG10383 (GeneID 35123) | DRSC02050 | 11 | inactive
CG10383 (GeneID 35123) | DRSC29310 | 5 | inactive
CG14238 (GeneID 43195) | DRSC14732 | 9 | inactive
CG14238 (GeneID 43195) | DRSC29545 | 4 | inactive
Eig71Eh (GeneID 39709) | DRSC11155 | 6 | inactive
CecA2 (GeneID 43597) | DRSC16604 | 14 | inactive
CG17906 + alien | DRSC24008 | 9 | inactive
dtr (GeneID 318856) | DRSC01847 | 12 | inactive
CG9394 (GeneID 37399) | DRSC04550 | 3 | inactive
CG6380 (GeneID 35040) | DRSC02950 | 5 | inactive
CG34406 (retired record) (GeneID 33536) | DRSC00523 | 7 | inactive
CG34406 (retired record) (GeneID 33536) | DRSC00606 | 3 | inactive
CG34406 (retired record) (GeneID 33536) | DRSC25843 | 6 | inactive
osk (GeneID 41066) | DRSC17023 | 3 | inactive
CG4956 (GeneID 43114) | DRSC15683 | 10 | inactive
CG4956 (GeneID 43114) | DRSC24523 | 4 | inactive
Cnx14D (GeneID 32620) | DRSC20214 | 7 | inactive
Cnx14D (GeneID 32620) | DRSC25425 | 9 | inactive
Timp (GeneID 41248) | DRSC17082 | 6 | inactive
Su(var)3-9 (GeneID 41483) | DRSC14484 | 5 | inactive
Su(var)3-9 (GeneID 41483) | DRSC29176 | 3 | inactive
Fit2 (GeneID 39907) | DRSC10908 | 5 | inactive
PpN58A (GeneID 37493) | DRSC04642 | 8 | inactive
PpN58A (GeneID 37493) | DRSC28243 | 5 | inactive
CG14118 (GeneID 39465) | DRSC10122 | 6 | inactive
CG6689 (GeneID 41345) | DRSC16095 | 2 | inactive
CG6689 (GeneID 41345) | DRSC28313 | 8 | inactive
Nup358 (GeneID 43041) | DRSC14410 | 11 | inactive
Nup358 (GeneID 43041) | DRSC29772 | 4 | inactive
Cerk (GeneID 40640) | DRSC12285 | 4 | inactive
CG32073 (GeneID 326191) | DRSC09087 | 6 | inactive
CG32073 (GeneID 326191) | DRSC09894 | – | inactive
Rab32 (GeneID 35940) | DRSC05146 | 2 | inactive
Rab32 (GeneID 35940) | DRSC07522 | 6 | inactive
Rab32 (GeneID 35940) | DRSC28156 | 7 | inactive
Best4 (GeneID 39660) | DRSC10792 | 7 | inactive
Best4 (GeneID 39660) | DRSC29196 | 4 | inactive
ND-ASHI (GeneID 31604) | DRSC18291 | 5 | inactive
ND-ASHI (GeneID 31604) | DRSC27165 | 4 | inactive
robo3 (GeneID 33314) | DRSC00374 | 4 | inactive
robo3 (GeneID 33314) | DRSC00684 | 3 | inactive
bel (GeneID 45826) | DRSC16555 | 10 | inactive
bel (GeneID 45826) | DRSC25066 | 11 | inactive
CG8993 (GeneID 38301) | DRSC08616 | 5 | inactive
CG8993 (GeneID 38301) | DRSC27318 | 3 | inactive
Fcp3C (GeneID 31294) | DRSC18665 | 5 | inactive
TpnC4 (GeneID 35498) | DRSC04856 | 2 | inactive
Tret1-1 (GeneID 36248) | DRSC07046 | 2 | inactive
Tret1-1 (GeneID 36248) | DRSC07048 | 2 | inactive
Tret1-1 (GeneID 36248) | DRSC25701 | 4 | inactive
Obp56e (GeneID 37267) | DRSC07188 | 4 | inactive
Pgant7 (GeneID 32836) | DRSC19991 | 6 | inactive
Jhbp2 (GeneID 40612) | DRSC12292 | 5 | inactive
CG14937 (GeneID 34591) | DRSC02419 | 8 | inactive
ND-18 (GeneID 32936) | DRSC19441 | 9 | inactive
Elo68beta (GeneID 39245) | DRSC09860 | 8 | inactive
Mtpbeta (GeneID 37784) | DRSC04663 | 10 | inactive
Or69a (GeneID 2768964) | DRSC11243 | 7 | inactive
Or69a (GeneID 2768964) | DRSC25967 | 4 | inactive
Obp57a (GeneID 246670) | DRSC22047 | 12 | inactive
Obp57a (GeneID 246670) | DRSC25699 | 3 | inactive
CG31957 (GeneID 319046) | DRSC00207 | 5 | inactive
CG6225 (GeneID 41559) | DRSC15996 | 6 | inactive
CG15882 (GeneID 32895) | DRSC19735 | 5 | inactive
CG17109 (GeneID 42730) | DRSC15172 | 16 | inactive
CG17109 (GeneID 42730) | DRSC26637 | 6 | inactive
CG17026 (GeneID 39739) | DRSC10237 | 4 | inactive
CG17026 (GeneID 39739) | DRSC24059 | 3 | inactive
CG12768 (GeneID 40513) | DRSC23215 | 6 | inactive
CG12768 (GeneID 40513) | DRSC28549 | 11 | inactive
CG4372 (GeneID 37490) | DRSC04466 | 5 | inactive
